# Test results as given in article PMC12040169 (PLOS Biology, 2025).
# This is one part of the list.
# Tested on: T1, CTL2-GFP (C. trachomatis L2/434/Bu, GFP-expressing)
# T1 construct: L2/434/Bu, GFP-expressing
# Parameters: species or system HeLa; Intracellular C. trachomatis growth in HeLa cells, bulk GFP fluorescence relative to DMSO
# Details: bulk GFP, single well; 28.5 h, 10 µM; inhibitor
row,Structure (SMILES),% of control remaining [%]
1,Cc1c(C(=O)NC(C)c2ccncc2)oc2c(F)cccc12 (stereo not drawn) [CBK282105],132.116
2,c1ccc2sc(SCCN3CCCCC3)nc2c1 [CBK016366],117.055
3,CCOC(=O)c1sc2nc(C(C)N3CCOCC3)[nH]c(=O)c2c1C (stereo not drawn) [CBK305862],140.506
4,COC(=O)CCCNS(=O)(=O)c1ccc([N+](=O)[O-])cc1 [CBK261172],91.5713
5,Cc1nn(C)c(C)c1CCC(=O)N1CCc2ncc(Cl)cc2C1 [CBK284851],77.2393
6,Cc1c(NC(=O)CSCc2ccc(Cl)cc2Cl)cccc1C(=O)O [CBK131704],104.199
7,O=S(=O)(NC(c1c[nH]c2ccccc12)C(Cl)(Cl)Cl)c1ccccc1 (stereo not drawn) [CBK263279],84.0813
8,CC1(C)CC(=O)C2=C(C1)Nc1nn(-c3ccccc3)c(O)c1C2c1cccs1 (stereo not drawn) [CBK266333],140.251
9,CC(CC(=O)NCC1(C)COC1)n1cnc2ccccc21 (stereo not drawn) [CBK281755],139.154
10,O=C(Cc1ccc(Cl)c(Cl)c1)N1CCN(c2ncccn2)CC1 [CBK144497],104.455
11,Nc1ccccc1Sc1ncccc1C(F)(F)F [CBK093758],159.037
12,Oc1cccc(-c2cc(CC3(NCc4ccc(F)cc4)COC3)no2)c1 [CBK289646],152.393
13,O=C(c1ccco1)c1coc2ccc(O)cc12 [CBK115570],117.432
14,c1ccc(CCn2nnnc2CN2CCN(c3ccccc3)CC2)cc1 [CBK069271],102.746
15,Nc1nonc1-n1nnc(C(=O)N/N=C/c2ccc([N+](=O)[O-])cc2)c1-c1ccccc1 [CBK261992],102.128
16,c1c2c(cc3sc(N4CCCCC4)nc13)OCCO2 [CBK287497],156.757
17,CC(NC(=O)c1c(Cl)c(Cl)c(Cl)c(Cl)c1C(=O)O)c1cccs1 (stereo not drawn) [CBK264722],122.183
18,CNc1snc(N2CCOCC2)c1C#N [CBK011453],116.947
19,CC(C)(CNC(=O)Cn1cc(C(=O)NC2CCCCC2)ccc1=O)c1ccccc1F [CBK286099],117.184
20,CC(C)c1csc(NC(=O)C2CN(S(=O)(=O)c3ccc(F)cc3)C2)n1 [CBK285944],91.0739
21,Cc1nn(Cc2cccc3ccccc23)c(C)c1NC(=O)c1ccccn1 [CBK269936],78.3243

row,Structure (SMILES),% of control remaining [%]
1,CCN(CC)C(=O)CC1SC(NCC2CCCCC2)=NC1=O (stereo not drawn) [CBK067923],129.188
2,COc1ccc(C(C)C)cc1-c1cnc2nc(NS(C)(=O)=O)ccc2c1 [CBK085672],102.736
3,CCCCc1c(O)[nH]c2nc3ccccc3n2c1=O [CBK287875],105.141
4,CCC1c2cccn2CCN1Cc1cncn1CC (stereo not drawn) [CBK283012],128.181
5,O=C(Nc1ccccc1)O[C@@H]1CO[C@H]2[C@@H]1OC[C@@H]2Nc1nccc(-c2cccs2)n1 [CBK289513],88.6486
6,C/C=C/c1ccc(OCCCn2nnc3ccccc32)c(OC)c1 [CBK269271],145.902
7,CC[C@@H]1CCCCN1C(=O)c1ccc(Cl)c(C)c1 [CBK084565],131.154
8,COc1ccc([C@@H]2CN(C)C[C@H]2NC(=O)Nc2ccc(Cl)c(Cl)c2)cc1OC [CBK081111],12.3546
9,O=C(COc1ccccc1)N1CCC(c2cc3cnccc3[nH]2)CC1 [CBK283449],96.6483
10,COc1ccc(Cc2nnc(SCC(=O)Nc3ccc(Br)c(C)c3)n2C)cc1 [CBK265816],100
11,COc1ccc(S(=O)(=O)NCc2ccc3c(c2)OCO3)cc1C(=O)O [CBK264070],100
12,CC(C)C[C@@H]1N[C@H](C(=O)NC2CCC2)Cc2cn(Cc3nccn3C)c3cccc1c23 [CBK289422],111.931
13,Cc1noc(C)c1C(=O)N1CCC(c2ccncc2)CC1 [CBK282334],84.5311
14,CC1(C)Cc2nc(N3CCOCC3)ncc2C(NC(=O)NC(C)(C)C)C1 (stereo not drawn) [CBK306978],116.582
15,O=C(Nc1cccc(OC(=O)c2cccc(S(=O)(=O)N3CCOCC3)c2)c1)c1ccccc1 [CBK261365],100
16,CC(C)CC(Nc1ncnc2c1oc1ccccc12)C(=O)O (stereo not drawn) [CBK293974],141.541
17,COc1ccc(CCC(=O)N2CCCc3c(cnn3C)C2)cc1 [CBK285326],116.579
18,Fc1ccc(-c2nccnc2NCc2ccncc2)cc1 [CBK088964],185.265
19,COC(=O)c1c(NC(=O)COc2ccccc2Cl)sc2c1CCC(c1ccccc1)C2 (stereo not drawn) [CBK265456],132.173
20,CN(C)CCN1CCN(c2ccc(-c3ccc(OC(F)(F)F)cc3)cn2)CC1 [CBK036796],134.337
21,COc1ccc(OC)c(C(O)CN2CCc3sccc3C2c2cccs2)c1 (stereo not drawn) [CBK285532],75.1264

# In a second layout: results already given
row	Structure (SMILES)	% of control remaining [%]
3	CCOC(=O)c1sc2nc(C(C)N3CCOCC3)[nH]c(=O)c2c1C (stereo not drawn) [CBK305862]	140.506
4	COC(=O)CCCNS(=O)(=O)c1ccc([N+](=O)[O-])cc1 [CBK261172]	91.5713
7	O=S(=O)(NC(c1c[nH]c2ccccc12)C(Cl)(Cl)Cl)c1ccccc1 (stereo not drawn) [CBK263279]	84.0813
9	CC(CC(=O)NCC1(C)COC1)n1cnc2ccccc21 (stereo not drawn) [CBK281755]	139.154
11	Nc1ccccc1Sc1ncccc1C(F)(F)F [CBK093758]	159.037
12	Oc1cccc(-c2cc(CC3(NCc4ccc(F)cc4)COC3)no2)c1 [CBK289646]	152.393
14	c1ccc(CCn2nnnc2CN2CCN(c3ccccc3)CC2)cc1 [CBK069271]	102.746
15	Nc1nonc1-n1nnc(C(=O)N/N=C/c2ccc([N+](=O)[O-])cc2)c1-c1ccccc1 [CBK261992]	102.128
16	c1c2c(cc3sc(N4CCCCC4)nc13)OCCO2 [CBK287497]	156.757
21	Cc1nn(Cc2cccc3ccccc23)c(C)c1NC(=O)c1ccccn1 [CBK269936]	78.3243
2	COc1ccc(C(C)C)cc1-c1cnc2nc(NS(C)(=O)=O)ccc2c1 [CBK085672]	102.736
3	CCCCc1c(O)[nH]c2nc3ccccc3n2c1=O [CBK287875]	105.141
5	O=C(Nc1ccccc1)O[C@@H]1CO[C@H]2[C@@H]1OC[C@@H]2Nc1nccc(-c2cccs2)n1 [CBK289513]	88.6486
6	C/C=C/c1ccc(OCCCn2nnc3ccccc32)c(OC)c1 [CBK269271]	145.902
7	CC[C@@H]1CCCCN1C(=O)c1ccc(Cl)c(C)c1 [CBK084565]	131.154
9	O=C(COc1ccccc1)N1CCC(c2cc3cnccc3[nH]2)CC1 [CBK283449]	96.6483
11	COc1ccc(S(=O)(=O)NCc2ccc3c(c2)OCO3)cc1C(=O)O [CBK264070]	100
12	CC(C)C[C@@H]1N[C@H](C(=O)NC2CCC2)Cc2cn(Cc3nccn3C)c3cccc1c23 [CBK289422]	111.931
14	CC1(C)Cc2nc(N3CCOCC3)ncc2C(NC(=O)NC(C)(C)C)C1 (stereo not drawn) [CBK306978]	116.582
15	O=C(Nc1cccc(OC(=O)c2cccc(S(=O)(=O)N3CCOCC3)c2)c1)c1ccccc1 [CBK261365]	100
17	COc1ccc(CCC(=O)N2CCCc3c(cnn3C)C2)cc1 [CBK285326]	116.579
19	COC(=O)c1c(NC(=O)COc2ccccc2Cl)sc2c1CCC(c1ccccc1)C2 (stereo not drawn) [CBK265456]	132.173
21	COc1ccc(OC)c(C(O)CN2CCc3sccc3C2c2cccs2)c1 (stereo not drawn) [CBK285532]	75.1264

# Following part.

row,Structure (SMILES),% of control remaining [%]
1,Nc1ccccc1Sc1cc(C(F)(F)F)ccn1 [CBK093761],109.558
2,COc1cc(-c2nc(N)cc3cccnc23)cc(OC)c1OC [CBK061892],121.214
3,COc1ccccc1CC(=O)N1[C@H](Cc2ccccc2)C[C@@H]2NCCCCC[C@H]21 [CBK285978],108.09
4,Cc1c(NC(=O)c2ccc([N+](=O)[O-])o2)cccc1-c1nc2ccccc2s1 [CBK263051],92.6613
5,COc1nc(NCCN2CCOCC2)nc(Nc2ccccc2)n1 [CBK027298],100.055
6,CSc1ccc(-c2cn3ccnc3c(NCCc3ccncc3)n2)cc1 [CBK066479],191.138
7,O=C(Nc1cccnc1)c1cnc2cc(Cl)ccc2c1O [CBK107353],133.801
8,O=C1CC(c2nc(-c3ccncc3)no2)CN1c1ccc2c(c1)OCO2 (stereo not drawn) [CBK288583],95.4231
9,O=C(NCCO)c1ccc(CSc2nc3sc4c(c3c(=O)[nH]2)CCCC4)cc1 [CBK263522],100
10,O=c1cc(-c2ccccc2)nc(SCc2nc(-c3cccs3)no2)[nH]1 [CBK268416],102.538
11,CCCC/C=C/c1cn2ccnc2c(NCCc2cccnc2)n1 [CBK066235],146.556
12,CC(=O)[C@H]1C[C@@H](CC(=O)NCc2csc(-c3ccccc3)n2)C1(C)C [CBK092335],85.4372
13,CNC(=O)C1CCN(S(=O)(=O)c2ccc(C(C)(C)C)cc2)CC1 [CBK051544],99.6837
14,CC(=O)Nc1ccc(C(=O)CSc2nnc(C)o2)cc1 [CBK267851],96.0293
15,CC(=O)N1CC2(CCCC2)c2c(F)cccc21 [CBK306339],144.541
16,Cc1cc(C)nc(Nc2n[nH]c(COc3ccccc3)n2)n1 [CBK268016],134.017
17,N#Cc1ccccc1CSc1nc(N2CCOCC2)nc(N2CCOCC2)n1 [CBK268998],148.739
18,Cc1ccc(Nc2nc(N(C)C)nc3[nH]ncc23)cc1 [CBK288098],114.814
19,OC1(c2cccnc2F)CCN(Cc2cccc(F)c2F)CC1 [CBK284375],105.516
20,COc1ccc(S(=O)(=O)Nc2nccnc2-c2ccc(CN3C(=O)CCC3=O)cc2)cc1 [CBK050699],104.723
21,CCc1cccc(NC(=O)CCc2ccccc2)c1 [CBK263637],79.0194

row,Structure (SMILES),% of control remaining [%]
1,Nc1csc(C2CCOCC2)n1 [CBK019258],131.669
2,CC(Sc1nc(-c2cccnc2)ccc1C#N)C(=O)O (stereo not drawn) [CBK267452],144.698
3,O=C(Cc1cc(Cl)ccc1C(F)(F)F)Nc1ccc2ncccc2c1 [CBK159802],123.073
4,Cc1nc2n(n1)C1=CC(C)(C)CC(=O)C1=NN2 [CBK019050],148.472
5,Cc1noc(C)c1NC(=O)c1nccc2ccccc12 [CBK200310],96.3321
6,CN(C)/C=N/c1nc(=O)n([C@H]2CC(O)[C@@H](CO)O2)cc1/C=C/C(=O)NCCCCCCNC(=O)C(F)(F)F (stereo partly drawn) [CBK201330],113.869
7,Cc1ccc(-c2csc3ncnc(Cl)c23)cc1 [CBK287765],95.7968
8,Cc1cc(C(C)(C)C)oc1C(=O)N1CCn2c(nnc2C2CC2)C1 [CBK283771],138.693
9,Cc1c(C(=O)NCc2cc(C3CC3)[nH]n2)[nH]c2c(Cl)cccc12 [CBK282533],132.186
10,O=C(Nc1ccccc1C(F)(F)F)N1CCN(c2ccccc2Cl)CC1 [CBK045081],120.363
11,CCCN1C(=O)c2ccc(C(=O)Nc3cc(C(=O)O)cc(C(=O)O)c3)cc2C1=O [CBK266441],128.606
12,COc1ccc(Cc2nc(C3CC3)n(CC(F)(F)F)n2)cc1 [CBK307686],117.015
13,CSc1nc2n(n1)C(C)C1=C(CCCC1=O)N2 (stereo not drawn) [CBK288169],101.892
14,CCCCCOc1ccc(Nc2cc(-c3ccccc3N(C)C)ncn2)cc1 [CBK090890],81.4073
15,CC(C)c1csc(NC(=O)CC2CCN(C(=O)CC3CCCCC3)CC2)n1 [CBK285963],126.233
16,O=C(Nc1sc2c(c1C(=O)NCC1CCCO1)CCCC2)c1ccccc1[N+](=O)[O-] (stereo not drawn) [CBK264608],120.729
17,COc1ccc(-c2nc(C3CCNCC3)n3ccccc23)cc1 [CBK035971],141.833
18,COc1ccc(N2CCN(c3cc(-c4cccc5ccccc45)ncn3)CC2)cc1OC [CBK091022],184.409
